Assay results from the M2OR odorant receptor database.
The entries are a selection whose mix differs from that of the whole data set. Calls are pooled over several reports, among them a noisy single-well screen. The list shows a part of the results.

Columns and labels:
Details in all cases: stereoisomer not certain
OR1L1 = system: T1, OR1L1
T1 sequence (whole entry): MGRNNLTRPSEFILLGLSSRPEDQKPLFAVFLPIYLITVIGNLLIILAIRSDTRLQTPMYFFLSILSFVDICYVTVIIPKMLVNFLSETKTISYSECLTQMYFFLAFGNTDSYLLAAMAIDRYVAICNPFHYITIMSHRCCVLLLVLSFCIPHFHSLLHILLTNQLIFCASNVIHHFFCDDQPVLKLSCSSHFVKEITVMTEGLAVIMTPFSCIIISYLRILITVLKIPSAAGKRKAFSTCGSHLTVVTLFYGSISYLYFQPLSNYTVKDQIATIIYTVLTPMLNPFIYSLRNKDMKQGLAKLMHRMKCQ
Outline: (§1)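 Each entry records the cell line, G-protein, co-transfected protein and tags used. Methods varied with the source, often transient luciferase assays in mammalian cell lines. A receptor–molecule pair is called responsive (active) if the original authors judged its signal statistically different from baseline and non-responsive (inactive) otherwise.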

OR1L3 (Homo sapiens) = molecular target: T2, OR1L3 (Homo sapiens) (UniProt Q8NH93)
T2 sequence (whole entry): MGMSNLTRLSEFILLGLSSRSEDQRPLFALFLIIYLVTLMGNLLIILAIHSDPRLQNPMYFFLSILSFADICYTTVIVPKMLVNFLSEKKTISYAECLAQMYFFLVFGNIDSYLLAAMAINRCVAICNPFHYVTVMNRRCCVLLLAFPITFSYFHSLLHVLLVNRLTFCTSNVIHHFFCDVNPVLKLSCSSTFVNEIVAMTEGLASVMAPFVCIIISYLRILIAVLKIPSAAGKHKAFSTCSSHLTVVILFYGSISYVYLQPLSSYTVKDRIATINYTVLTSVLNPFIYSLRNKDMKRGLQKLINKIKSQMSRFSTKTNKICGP
Outline: as §1

OR1L4 = system: T3, OR1L4
T3 sequence (whole entry): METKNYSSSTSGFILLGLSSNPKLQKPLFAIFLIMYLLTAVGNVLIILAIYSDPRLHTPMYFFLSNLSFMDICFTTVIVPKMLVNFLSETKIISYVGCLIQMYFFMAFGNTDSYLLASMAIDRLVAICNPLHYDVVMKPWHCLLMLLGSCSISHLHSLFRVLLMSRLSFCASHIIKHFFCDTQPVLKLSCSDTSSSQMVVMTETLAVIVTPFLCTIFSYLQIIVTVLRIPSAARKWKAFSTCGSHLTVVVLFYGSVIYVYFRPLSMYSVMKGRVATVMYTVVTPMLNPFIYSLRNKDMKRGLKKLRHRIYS
Outline: as §1

OR1L6 = system: T4, OR1L6
T4 sequence (whole entry): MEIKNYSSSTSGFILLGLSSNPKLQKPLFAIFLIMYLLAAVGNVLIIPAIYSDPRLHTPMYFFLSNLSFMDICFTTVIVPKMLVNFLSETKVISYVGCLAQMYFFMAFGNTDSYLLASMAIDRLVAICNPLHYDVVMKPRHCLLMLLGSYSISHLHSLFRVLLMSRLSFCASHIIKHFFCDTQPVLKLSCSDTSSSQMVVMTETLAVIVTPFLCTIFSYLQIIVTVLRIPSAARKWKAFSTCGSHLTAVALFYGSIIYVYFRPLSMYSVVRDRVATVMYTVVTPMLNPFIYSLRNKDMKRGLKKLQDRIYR
Outline: as §1

OR1L8 (Homo sapiens) = molecular target: T5, OR1L8 (Homo sapiens) (UniProt Q8NGR8)
T5 sequence (whole entry): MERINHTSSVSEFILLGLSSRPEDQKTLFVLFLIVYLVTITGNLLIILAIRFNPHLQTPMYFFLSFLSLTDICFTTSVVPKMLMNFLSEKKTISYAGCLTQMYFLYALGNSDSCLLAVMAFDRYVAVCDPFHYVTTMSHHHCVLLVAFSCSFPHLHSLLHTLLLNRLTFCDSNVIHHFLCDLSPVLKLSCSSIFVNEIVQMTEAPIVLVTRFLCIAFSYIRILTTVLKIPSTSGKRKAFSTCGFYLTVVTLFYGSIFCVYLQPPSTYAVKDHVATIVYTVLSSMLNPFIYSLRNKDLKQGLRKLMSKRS
Outline: as §1

OR1M1 = system: T6, OR1M1
T6 sequence (whole entry): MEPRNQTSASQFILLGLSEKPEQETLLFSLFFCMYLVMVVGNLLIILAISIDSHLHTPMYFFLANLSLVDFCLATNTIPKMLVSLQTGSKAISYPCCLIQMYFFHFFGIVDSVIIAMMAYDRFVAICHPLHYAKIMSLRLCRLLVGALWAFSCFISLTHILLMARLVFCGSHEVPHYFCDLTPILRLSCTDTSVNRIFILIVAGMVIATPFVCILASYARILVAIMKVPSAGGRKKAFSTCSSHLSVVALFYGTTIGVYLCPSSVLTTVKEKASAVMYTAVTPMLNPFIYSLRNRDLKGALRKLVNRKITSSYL
Outline: as §1

OR1N1 (Homo sapiens) = molecular target: T7, OR1N1 (Homo sapiens) (UniProt Q8NGS0)
T7 sequence (whole entry): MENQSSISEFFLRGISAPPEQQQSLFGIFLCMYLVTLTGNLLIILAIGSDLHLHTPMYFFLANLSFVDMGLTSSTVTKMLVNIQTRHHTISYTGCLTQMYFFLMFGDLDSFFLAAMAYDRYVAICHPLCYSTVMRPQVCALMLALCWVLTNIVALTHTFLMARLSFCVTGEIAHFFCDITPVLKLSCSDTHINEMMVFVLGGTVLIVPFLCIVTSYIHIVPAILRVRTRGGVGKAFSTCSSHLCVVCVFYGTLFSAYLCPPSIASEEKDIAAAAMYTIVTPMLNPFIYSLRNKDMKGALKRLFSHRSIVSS
Outline: as §1

OR1N2 (Homo sapiens) = molecular target: T8, OR1N2 (Homo sapiens) (UniProt Q8NGR9)
T8 sequence (whole entry): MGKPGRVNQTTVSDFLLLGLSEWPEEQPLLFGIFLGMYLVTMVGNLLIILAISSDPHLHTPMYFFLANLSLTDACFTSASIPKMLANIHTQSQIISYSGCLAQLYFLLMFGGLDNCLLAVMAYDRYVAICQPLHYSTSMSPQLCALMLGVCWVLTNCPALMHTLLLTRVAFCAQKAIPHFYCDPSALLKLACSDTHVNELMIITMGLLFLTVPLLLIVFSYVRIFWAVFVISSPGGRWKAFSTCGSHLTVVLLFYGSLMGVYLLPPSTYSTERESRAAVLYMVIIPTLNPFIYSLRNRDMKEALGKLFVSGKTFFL
Outline: as §1

OR1N2 = system: T9, OR1N2
T9 sequence (whole entry): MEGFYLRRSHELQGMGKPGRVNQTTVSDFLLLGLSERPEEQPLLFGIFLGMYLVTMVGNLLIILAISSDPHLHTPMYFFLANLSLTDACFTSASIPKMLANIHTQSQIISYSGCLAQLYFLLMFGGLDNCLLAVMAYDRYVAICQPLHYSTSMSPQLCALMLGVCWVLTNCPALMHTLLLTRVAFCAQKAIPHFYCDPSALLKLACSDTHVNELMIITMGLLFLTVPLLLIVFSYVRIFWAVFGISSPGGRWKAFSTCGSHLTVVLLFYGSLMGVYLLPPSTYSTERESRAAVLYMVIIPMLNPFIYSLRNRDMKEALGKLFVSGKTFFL
Outline: as §1

OR1Q1 = system: T10, OR1Q1
T10 sequence (whole entry): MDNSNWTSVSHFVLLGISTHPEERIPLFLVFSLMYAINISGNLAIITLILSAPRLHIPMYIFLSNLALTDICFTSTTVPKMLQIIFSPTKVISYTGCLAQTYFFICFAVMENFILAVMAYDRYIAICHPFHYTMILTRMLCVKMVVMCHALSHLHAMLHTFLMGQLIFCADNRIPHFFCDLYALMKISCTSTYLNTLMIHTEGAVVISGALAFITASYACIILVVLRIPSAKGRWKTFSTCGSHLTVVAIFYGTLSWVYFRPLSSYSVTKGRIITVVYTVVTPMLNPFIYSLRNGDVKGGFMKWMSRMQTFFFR
Outline: as §1

OR1S1 = system: T11, OR1S1
T11 sequence (whole entry): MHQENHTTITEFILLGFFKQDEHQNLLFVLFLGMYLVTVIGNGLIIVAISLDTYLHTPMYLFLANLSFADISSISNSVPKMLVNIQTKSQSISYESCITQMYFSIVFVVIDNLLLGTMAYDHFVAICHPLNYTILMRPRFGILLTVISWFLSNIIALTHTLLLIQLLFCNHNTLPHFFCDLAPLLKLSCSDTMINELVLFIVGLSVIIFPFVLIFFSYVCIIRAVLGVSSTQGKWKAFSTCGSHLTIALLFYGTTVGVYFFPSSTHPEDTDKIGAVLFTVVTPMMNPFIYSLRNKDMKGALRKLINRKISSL
Outline: as §1

OR1S2 = system: T12, OR1S2
T12 sequence (whole entry): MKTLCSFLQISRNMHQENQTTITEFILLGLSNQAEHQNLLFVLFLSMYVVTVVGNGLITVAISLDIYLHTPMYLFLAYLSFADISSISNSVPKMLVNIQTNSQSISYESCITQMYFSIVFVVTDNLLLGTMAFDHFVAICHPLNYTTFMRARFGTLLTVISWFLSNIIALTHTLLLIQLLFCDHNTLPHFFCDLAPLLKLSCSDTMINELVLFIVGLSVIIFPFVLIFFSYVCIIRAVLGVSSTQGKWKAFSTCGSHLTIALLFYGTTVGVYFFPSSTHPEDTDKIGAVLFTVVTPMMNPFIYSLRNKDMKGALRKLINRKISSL
Outline: as §1

OR2A12 (Homo sapiens) = molecular target: T13, OR2A12 (Homo sapiens) (UniProt Q8NGT7)
T13 sequence (whole entry): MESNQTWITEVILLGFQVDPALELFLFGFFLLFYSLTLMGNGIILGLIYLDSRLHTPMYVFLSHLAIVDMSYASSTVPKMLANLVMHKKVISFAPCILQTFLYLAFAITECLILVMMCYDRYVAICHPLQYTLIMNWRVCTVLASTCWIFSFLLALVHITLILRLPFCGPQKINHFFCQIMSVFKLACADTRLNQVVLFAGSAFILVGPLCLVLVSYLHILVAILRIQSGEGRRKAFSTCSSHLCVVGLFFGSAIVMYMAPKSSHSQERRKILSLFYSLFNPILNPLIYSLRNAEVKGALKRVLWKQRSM
Outline: as §1

OR2A1 (Homo sapiens) = molecular target: T14, OR2A1 (Homo sapiens) (UniProt Q8NGT9)
T14 sequence (whole entry): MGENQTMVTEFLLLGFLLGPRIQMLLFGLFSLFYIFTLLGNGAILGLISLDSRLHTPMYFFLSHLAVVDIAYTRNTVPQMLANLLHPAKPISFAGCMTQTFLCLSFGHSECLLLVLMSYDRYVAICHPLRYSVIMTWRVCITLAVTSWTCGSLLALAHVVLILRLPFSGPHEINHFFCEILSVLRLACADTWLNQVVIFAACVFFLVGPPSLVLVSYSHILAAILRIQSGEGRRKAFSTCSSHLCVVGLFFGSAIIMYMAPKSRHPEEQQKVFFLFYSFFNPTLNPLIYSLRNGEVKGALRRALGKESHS
Outline: as §1

OR1M1 (Homo sapiens) = OR1M1 (Homo sapiens) (UniProt Q8NGA1)
Outline: as §1

Row | SMILES | odorant receptor agonist call (OR1L1) | odorant receptor agonist call (OR1L3 (Homo sapiens)) | odorant receptor agonist call (OR1L4) | odorant receptor agonist call (OR1L6) | odorant receptor agonist call (OR1L8 (Homo sapiens)) | odorant receptor agonist call (OR1M1) | odorant receptor agonist call (OR1N1 (Homo sapiens)) | odorant receptor agonist call (OR1N2 (Homo sapiens)) | odorant receptor agonist call (OR1N2) | odorant receptor agonist call (OR1Q1) | odorant receptor agonist call (OR1S1) | odorant receptor agonist call (OR1S2) | odorant receptor agonist call (OR2A12 (Homo sapiens)) | odorant receptor agonist call (OR2A1 (Homo sapiens)) | odorant receptor agonist call (OR1M1 (Homo sapiens))
1 | CC1COCc2cc3c(cc21)C(C)(C)C(C)C3(C)C (centres undefined) | active | active | active | active | inactive | inactive | active | active | active | active | active | active | active | – | –
2 | COc1ccccc1O | inactive | inactive | inactive | inactive | inactive | inactive | inactive | inactive | inactive | inactive | inactive | inactive | inactive | – | –
3 | O=C1CCCCCCCCCCCC(=O)OCCO1 | inactive | inactive | inactive | inactive | inactive | inactive | inactive | inactive | inactive | inactive | inactive | active | inactive | – | –
4 | CCCCCC(=O)O | inactive | inactive | inactive | inactive | inactive | inactive | inactive | inactive | inactive | inactive | inactive | inactive | inactive | inactive | –
5 | COc1cc(C)ccc1O | inactive | inactive | inactive | inactive | inactive | inactive | inactive | inactive | inactive | inactive | inactive | inactive | inactive | – | –
6 | CCC=CCCO | inactive | inactive | inactive | inactive | inactive | inactive | inactive | inactive | inactive | inactive | inactive | inactive | inactive | – | –
7 | CCCCO | inactive | inactive | inactive | inactive | inactive | inactive | inactive | inactive | inactive | inactive | inactive | inactive | inactive | inactive | –
8 | C=CCc1ccc(OC(C)=O)c(OC)c1 | inactive | inactive | inactive | inactive | inactive | active | inactive | inactive | inactive | inactive | active | inactive | inactive | – | –
9 | CCC1(O)C2(C)CCC(C2)C1(C)C (centres undefined) | inactive | inactive | inactive | inactive | inactive | inactive | inactive | inactive | inactive | inactive | inactive | inactive | inactive | – | –
10 | CC(=O)OC1CC2CCC1(C)C2(C)C (centres undefined) | inactive | inactive | inactive | inactive | inactive | inactive | inactive | inactive | inactive | inactive | inactive | inactive | inactive | – | –
11 | CC12C=CCC1C1CCC3=CC(=O)CCC3(C)C1CC2 (centres undefined) | inactive | inactive | inactive | inactive | active | inactive | inactive | inactive | inactive | inactive | inactive | inactive | active | – | inactive
12 | CC(=O)OC(C)(C)C1CC=C(C)CC1 (centres undefined) | inactive | inactive | inactive | inactive | inactive | inactive | inactive | inactive | inactive | inactive | inactive | inactive | inactive | – | –

Whole records, looked up by structure. Order of values: odorant receptor agonist call (OR1L1) | odorant receptor agonist call (OR1L3 (Homo sapiens)) | odorant receptor agonist call (OR1L4) | odorant receptor agonist call (OR1L6) | odorant receptor agonist call (OR1L8 (Homo sapiens)) | odorant receptor agonist call (OR1M1) | odorant receptor agonist call (OR1N1 (Homo sapiens)) | odorant receptor agonist call (OR1N2 (Homo sapiens)) | odorant receptor agonist call (OR1N2) | odorant receptor agonist call (OR1Q1) | odorant receptor agonist call (OR1S1) | odorant receptor agonist call (OR1S2) | odorant receptor agonist call (OR2A12 (Homo sapiens)) | odorant receptor agonist call (OR2A1 (Homo sapiens)) | odorant receptor agonist call (OR1M1 (Homo sapiens))
COc1ccccc1O as listed: inactive | inactive | inactive | inactive | inactive | inactive | inactive | inactive | inactive | inactive | inactive | inactive | inactive | – | –
CCCCO as listed: inactive | inactive | inactive | inactive | inactive | inactive | inactive | inactive | inactive | inactive | inactive | inactive | inactive | inactive | –
